This note sets out measurements from publication PMC12293498.

Sequences of proteins named here, by UniProt entry; tags and fusion partners are left off.
UniProt Q96SC8: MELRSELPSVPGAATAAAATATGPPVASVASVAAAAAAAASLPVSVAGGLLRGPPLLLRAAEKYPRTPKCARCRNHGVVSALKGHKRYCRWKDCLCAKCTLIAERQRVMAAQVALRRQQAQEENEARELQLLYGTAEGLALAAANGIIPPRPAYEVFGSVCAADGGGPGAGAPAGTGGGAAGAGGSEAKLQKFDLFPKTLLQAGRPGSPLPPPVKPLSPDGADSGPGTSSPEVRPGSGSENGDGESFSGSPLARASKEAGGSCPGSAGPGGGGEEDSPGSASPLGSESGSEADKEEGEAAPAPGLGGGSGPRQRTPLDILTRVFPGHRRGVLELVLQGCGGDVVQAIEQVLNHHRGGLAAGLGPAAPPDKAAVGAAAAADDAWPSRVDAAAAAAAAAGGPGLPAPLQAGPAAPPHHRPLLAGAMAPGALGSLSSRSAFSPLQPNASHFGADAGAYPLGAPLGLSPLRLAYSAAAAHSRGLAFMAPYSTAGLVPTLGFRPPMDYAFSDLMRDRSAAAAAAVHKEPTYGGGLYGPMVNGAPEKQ
UniProt P08238: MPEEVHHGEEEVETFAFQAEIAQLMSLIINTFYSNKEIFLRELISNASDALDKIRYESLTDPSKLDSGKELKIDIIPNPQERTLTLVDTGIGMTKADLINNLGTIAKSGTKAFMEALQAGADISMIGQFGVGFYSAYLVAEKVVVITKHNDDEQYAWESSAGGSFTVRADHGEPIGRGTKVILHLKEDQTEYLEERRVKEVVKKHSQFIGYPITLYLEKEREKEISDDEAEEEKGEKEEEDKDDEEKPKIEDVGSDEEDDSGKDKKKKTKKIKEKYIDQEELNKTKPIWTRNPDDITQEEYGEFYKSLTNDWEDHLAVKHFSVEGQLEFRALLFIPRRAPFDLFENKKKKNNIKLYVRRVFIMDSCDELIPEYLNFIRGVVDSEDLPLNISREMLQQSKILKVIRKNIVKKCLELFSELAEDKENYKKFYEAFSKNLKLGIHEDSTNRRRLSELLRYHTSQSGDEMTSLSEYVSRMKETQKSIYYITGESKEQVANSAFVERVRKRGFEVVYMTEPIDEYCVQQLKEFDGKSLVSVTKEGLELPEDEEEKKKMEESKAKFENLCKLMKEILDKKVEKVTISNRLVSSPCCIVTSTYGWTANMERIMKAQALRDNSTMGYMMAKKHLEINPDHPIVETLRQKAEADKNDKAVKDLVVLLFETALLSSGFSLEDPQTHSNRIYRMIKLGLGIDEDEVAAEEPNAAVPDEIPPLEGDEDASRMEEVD

The target of this assay is DMRTA2 overexpressed from the pCMV6-Flag-DMRTA2 plasmid (human) (UniProt Q96SC8). Briefly: affinity purification with mass spectrometry; protein mass spectrometry after overexpressing DMRTA2 in A549 cells; how the sample was isolated is not told.

Results are given in words; binding and its absence hold for the method and conditions named. Binding seen in cells or lysates may run through a third protein. Here binding means that the protein was enriched with, or labelled near, the bait; the list need not be complete.

On to “HSP90β, endogenous (from UniProt P08238 1-724)”, for which the binding result is recorded as “binds”.
